# For some of these results: A negative result means that nothing was seen under these conditions. For some of these results: Weaker means in comparison with the reference protein, sequence or condition of that experiment. For some of these results: The exact form of at least one protein or probe is not confirmed.
# Amino acid sequences for entries named in this document (tags omitted). Residues count along the entry.
# UniProt P51858, 1-100: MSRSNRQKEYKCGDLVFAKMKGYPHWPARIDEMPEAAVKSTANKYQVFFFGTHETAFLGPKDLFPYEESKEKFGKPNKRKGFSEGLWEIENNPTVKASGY
# UniProt P0A7G6, 2-353: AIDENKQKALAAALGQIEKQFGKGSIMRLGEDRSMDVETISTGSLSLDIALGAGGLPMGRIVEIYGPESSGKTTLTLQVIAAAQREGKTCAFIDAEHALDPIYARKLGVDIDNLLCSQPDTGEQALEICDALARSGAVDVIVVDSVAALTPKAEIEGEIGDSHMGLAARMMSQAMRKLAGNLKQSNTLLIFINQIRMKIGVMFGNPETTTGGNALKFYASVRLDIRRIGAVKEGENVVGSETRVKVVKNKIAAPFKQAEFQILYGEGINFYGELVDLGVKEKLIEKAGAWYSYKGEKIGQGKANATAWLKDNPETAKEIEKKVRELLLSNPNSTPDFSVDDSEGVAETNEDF
# Key:
# HDGF (human) = HDGF (human) (UniProt P51858); test: PIFQ (Cy3 fluorescence quenching); conditions: 1 nM DNA, N.D.; HDGF assays: 46 mM NaCl, 0.9 mM KCl, 3.3 mM Na2HPO4, 0.66 mM KH2PO4, pH 7.4; at least 1 h on ice; 1-10 nM Cy3 DNA, 10 pM-100 nM protein; RecA dsDNA control at pH 7.5; recombinant protein; residues 1-240; label: Cy3; single-stranded DNA
# HDGF PWWP domain (human) = HDGF PWWP domain (human) (UniProt P51858); test: PIFQ (Cy3 fluorescence quenching); conditions: 1 nM DNA, approximation model; HDGF assays: 46 mM NaCl, 0.9 mM KCl, 3.3 mM Na2HPO4, 0.66 mM KH2PO4, pH 7.4; at least 1 h on ice; 1-10 nM Cy3 DNA, 10 pM-100 nM protein; RecA dsDNA control at pH 7.5; recombinant protein; residues 1-100; label: Cy3; single-stranded DNA
# [1] = test system: HDGF PWWP domain + HDGF C140 domain; test: PIFQ (Cy3 fluorescence quenching); conditions: 1 nM DNA, premixed, minimal decrease, attributed to PWWP nonspecific binding; HDGF assays: 46 mM NaCl, 0.9 mM KCl, 3.3 mM Na2HPO4, 0.66 mM KH2PO4, pH 7.4; at least 1 h on ice; 1-10 nM Cy3 DNA, 10 pM-100 nM protein; RecA dsDNA control at pH 7.5; recombinant protein; label: 5' Cy3
# E. coli RecA (E. coli) = E. coli RecA (E. coli) (UniProt P0A7G6); test: PIFE (Cy3 fluorescence enhancement); conditions: 1 nM DNA, no detectable change at pH 7.5; HDGF assays: 46 mM NaCl, 0.9 mM KCl, 3.3 mM Na2HPO4, 0.66 mM KH2PO4, pH 7.4; at least 1 h on ice; 1-10 nM Cy3 DNA, 10 pM-100 nM protein; RecA dsDNA control at pH 7.5; label: Cy3
sequence,measurement,setting,value
TTCAAGACCAGCCTG [15 nt SMYD1 ssDNA],binding result,HDGF (human),no binding
same,Kd,HDGF PWWP domain (human),16 nM
TTTTTTTTTTTTTTT (double strand) [poly(T-A)15 dsDNA],binding result,[1],binds more weakly
TTTTTTTTTTTTTTTTTTTTTTTTTTTTTTTTTTTTTTTT (double strand) [poly(T-A)40 dsDNA],binding result,E. coli RecA (E. coli),no binding
